No dose or concentration is given here for some results.

This note sets out measurements from patent publication US6286513A, “Methods for treating superficial bladder carcinoma” (priority 1998, dated 2001).

A short description of the data set: Overall bladder wall exposure to MMC: urinary AUC, C^n×T, urine production and pH (Table 3). The class given is in vivo, patients. The note with it: mean ± standard deviation. An excerpt: A commonly used measure of drug exposure for anticancer agent is the product of exposure concentration and duration, or AUC (area under the curve). […] The drug exposure in the urinary bladder can be determined from the drug concentration in the urine and can serve as a measure of exposure to the tumor tissue.

On to `COC12C(COC(N)=O)C3=C(C(=O)C(C)=C(N)C3=O)N1CC1NC12` (stereo not shown) [MMC], for which, under “customary experimental therapy”, the Urine production is 1.23 ± 0.86 mL/min and the “pH (urine)” value is recorded as 6.13 ± 0.84. Besides, for the setting “high efficacy therapy”, the Urine production is 1.05 ± 0.74 mL/min and the “pH (urine)” value is recorded as 6.80 ± 0.81.
